{"source": "PubChem BioAssay AID651558", "about": "(National Center for Advancing Translational Sciences (NCATS), 2012)", "note": "Hit rate of the full screen: of about 1,200 compounds, about 480 (40%) were called active. The inconclusive results got no clear call from the source; some entries with a clear call stand among them for comparison. Calls come from the whole dose curve; as a rule, active = well fitted inhibition curve with a large enough effect; inconclusive = small, poorly fitted or top-dose-only effect; inactive = no such curve, though single readings can be large or run the other way. Potencies beside an inconclusive call are fits to weak or partial responses and may not hold up. Potency is the fitted concentration of half-maximal effect."}
{"assay": "qHTS Assay to Find Inhibitors of Chronic Active B-Cell Receptor Signaling: Hit Validation in Primary Screen; note: nearly all actives have a fitted effect of over 75% in size", "settings": "ABC-DLBCL IkB-luc/CBR ratio luminescence, 4 h; series mostly up to 46.1 µM", "procedure,_shortened": "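Concentration series (3 nM to 46 uM) tested on TMD8 cells induced with doxycycline for 4 h. Filter-corrected green (IkBa fusion) over red (unfused) luciferase signal; Data were normalised to 10 uM MG-132 and untreated cell wells.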"}
{"compound": "CCSc1nc(-c2ccccc2)nc(C(Cl)Cl)n1", "Potency": "inconclusive: 4.11 µM [inhibitor, single point]"}
{"compound": "O=c1c2c(-c3ccco3)csc2nc(SCc2cn3cccnc3n2)n1-c1ccccc1", "Potency": "inconclusive: 3.66 µM [inhibitor, full curve]"}
{"compound": "COc1cc(C2=NOC(C(=O)NCc3ccc(F)cc3)C2)cc(OC)c1OC", "note": "(configuration not stated)", "Potency": "active: 4.61 µM"}
{"compound": "CCc1nnc(NC(=O)CSc2nnc(-c3ccccc3NC(=O)c3ccccc3)o2)s1", "Potency": "inactive"}
{"compound": "COC(=O)c1cccc(-n2sc3ccccc3c2=O)c1", "Potency": "inconclusive: 20.6 µM [inhibitor, partial curve]"}
{"compound": "Cc1nnc2sc(-c3csc4c3CCCC4)nn12", "Potency": "inconclusive: 18.4 µM [inhibitor, partial curve, poor fit]"}
{"compound": "COc1cc(C(=O)NC2CCN(Cc3nnnn3Cc3ccc(F)cc3)CC2)cc(OC)c1OC", "Potency": "inactive"}
{"compound": "CCc1nc2ccccc2c(C(=O)OCc2nc3ccccc3c(=O)[nH]2)c1C", "Potency": "inconclusive: 32.6 µM [inhibitor, single point]"}
{"compound": "O=C1N/C(=C/c2ccc(N3CCOCC3)o2)C(=O)N1c1cccc(Cl)c1", "Potency": "inconclusive: 23.1 µM [inhibitor, partial curve]"}
{"compound": "O=C(CN1CCC(NC(=O)Nc2ccc(F)cc2)CC1)Nc1ccccc1[N+](=O)[O-]", "Potency": "inactive"}
{"compound": "Cn1c(=O)[nH]c(=O)c2c1nc(SCC(N)=O)n2Cc1cccc(Br)c1", "Potency": "inconclusive: 9.2 µM [inhibitor, partial curve]"}
{"compound": "CCCCCC1CCC(c2n[nH]c(=S)n2C)CC1", "note": "(configuration not stated)", "Potency": "inconclusive: 23.1 µM [inhibitor, partial curve, poor fit]"}
{"compound": "O=C(CSc1ncn[nH]1)Nc1nnc(-c2ccccc2)s1", "Potency": "active: 0.231 µM"}
{"compound": "CNC(=O)c1cccc(NC(=O)C(C)c2ccc3cc(OC)ccc3c2)c1", "note": "(configuration not stated)", "Potency": "inconclusive: 13 µM [inhibitor, partial curve]"}
{"compound": "CCOc1ccc(NC(=S)N(CCc2c(C)[nH]c3ccccc23)Cc2cccnc2)cc1", "Potency": "inactive"}
{"compound": "CCc1c(C)nc(SCCOc2ccc(OC)cc2)[nH]c1=O", "Potency": "inconclusive: 20.6 µM [inhibitor, partial curve, poor fit]"}
{"compound": "CC(=O)Nc1ccc(S(=O)(=O)NCC(=O)OC(C)c2ccccc2Cl)cc1", "note": "(configuration not stated)", "Potency": "inactive"}
{"compound": "Cc1cn(-c2cccnc2)c(C)c1CNC[C@H]1O[C@@H](n2cnc3c(N)ncnc32)[C@H](O)[C@@H]1O", "Potency": "inactive"}
{"compound": "CC(=O)OCC(=O)[C@@]1(O)CC[C@H]2[C@@H]3CCC4=CC(=O)C=C[C@]4(C)[C@H]3[C@@H](O)C[C@@]21C", "Potency": "inconclusive: 0.326 µM [inhibitor, partial curve]"}
{"compound": "O=[N+]([O-])c1cc(Cl)c(O)c2ncccc12", "Potency": "inconclusive: 8.2 µM [inhibitor, partial curve]"}
{"compound": "CCN(CC)c1ccc2c(cc1=O)[C@@H](NC)CCc1cc(OC)c(OC)c(OC)c1-2", "Potency": "active: 5.8 µM"}
{"compound": "Cc1ccccc1-c1nc2c3ccccc3nc(=S)n2[nH]1", "Potency": "inactive"}
{"compound": "CCN1C(=O)c2cccc3c(NC(=O)c4ccc(OC)c(OC)c4)ccc1c23", "Potency": "active: 10.3 µM"}
{"compound": "CCOC(=O)C1=C(C)NC(C)=C(C(=O)OCC)C1C(=O)OCC(=O)NCc1ccccc1OC", "Potency": "inconclusive: 8.2 µM [inhibitor, partial curve]"}
{"compound": "O=C(Cc1ccc(-n2c(=O)c3ccccc3n(Cc3ccc(F)cc3)c2=O)cc1)NCC1CCCO1", "note": "(configuration not stated)", "Potency": "inconclusive: 2.06 µM [inhibitor, full curve]"}
{"compound": "CCCNc1ccc(C(=O)OCC)cc1[N+](=O)[O-]", "Potency": "inactive"}
{"compound": "O=C(Cc1n[nH]c(=O)c2ccccc12)OCC(=O)c1ccc2c(c1)OCCO2", "Potency": "active: 20.6 µM"}
{"compound": "O=C(CNC(=O)c1ccco1)N=Nc1c(O)n(CCc2ccccc2)c2ccccc12", "Potency": "active: 5.8 µM"}
{"compound": "CCn1c(=S)[nH]c2cc(S(=O)(=O)N3CCOCC3)ccc21", "Potency": "inconclusive: 16.4 µM [inhibitor, partial curve]"}
{"compound": "N#CC1=C2SCC(O)(c3ccccc3)N2C(=O)CC1c1cccs1", "note": "(configuration not stated)", "Potency": "active: 13 µM"}
{"compound": "Cc1ccc(CCC(=O)Nc2ncc(Cc3cccc(Cl)c3Cl)s2)o1", "Potency": "active: 0.231 µM"}
{"compound": "Cc1ccc(OCCN2C(=O)C(=O)c3cc(C)ccc32)cc1", "Potency": "active: 20.6 µM"}
{"compound": "O=C1N/C(=N/N=C/c2ccccc2O)SC1Cc1ccc(F)cc1", "note": "(configuration not stated)", "Potency": "active: 9.2 µM"}
{"compound": "Cc1cc(C(=O)NN)c2cc(Br)ccc2n1", "Potency": "inconclusive: 6.51 µM [inhibitor, single point]"}
{"compound": "Cc1ccc(N(C)S(=O)(=O)c2ccc(-c3cnc(C4CC4)o3)cc2)cc1", "Potency": "active: 5.8 µM"}
{"compound": "COc1cc(OC)cc(C(=O)NCc2cc(C)nc3ccccc23)c1", "Potency": "inactive"}
{"compound": "COC(=O)[C@@H]1[C@@H](C#N)C2(c3ccccc3-c3ccccc32)N(c2ccc(Cl)cc2)N1C#N", "Potency": "inconclusive: 4.11 µM [inhibitor, single point]"}
{"compound": "COc1ccc(/C=N/NC(=O)c2cc3c(OC)ccc(OC)c3[nH]2)cc1O", "Potency": "active: 2.31 µM"}
{"compound": "C/C(=N\\NC(=O)COc1ccccc1-c1ccccc1)c1ccccn1", "Potency": "inactive"}
{"compound": "Cc1cc(/C=C(\\C#N)C(=O)N2CCCCC2)cc(C)c1O", "Potency": "inconclusive: 20.6 µM [inhibitor, partial curve, poor fit]"}
{"compound": "CCOC(=O)C(NCc1ccccc1)(NC(=O)c1ccccc1)C(F)(F)F", "note": "(configuration not stated)", "Potency": "inactive"}
{"compound": "CCN(CC)S(=O)(=O)c1ccc2c(c1)c(=O)c(C(=O)NCCc1ccc(OC)c(OC)c1)cn2C", "Potency": "inconclusive: 7.31 µM [inhibitor, partial curve]"}
{"compound": "COc1ccc(OCC(O)CN2CCN(c3ccccc3)CC2)cc1", "note": "(configuration not stated)", "Potency": "inactive"}
{"compound": "COC(=O)CSC1=C(C#N)C(c2ccc(C)o2)CC(=O)N1", "note": "(configuration not stated)", "Potency": "inconclusive: 18.4 µM [inhibitor, partial curve, poor fit]"}
{"compound": "CCCCOc1ccc(Br)cc1/C(C)=N/NC1=NCCN1", "Potency": "inconclusive: 16.4 µM [inhibitor, single point]"}
{"compound": "CN(C)NC(=S)NC(=O)C12CC3CC(CC(C3)C1)C2", "Potency": "inactive"}
{"compound": "C/C(=N\\NC(=O)c1ccc(F)cc1)c1ccccn1", "Potency": "inactive"}
{"compound": "O=C(CSc1nc2ccccc2c(=O)n1-c1ccccc1F)NC1CC1", "Potency": "inconclusive: 18.4 µM [inhibitor, partial curve]"}
{"compound": "CN(CC(=O)Nc1ccccc1C(F)(F)F)C(=O)c1ccccc1Sc1ccccc1C#N", "Potency": "inactive"}
{"compound": "Cc1ccccc1N=Nc1c(C)[nH]n(C(N)=S)c1=O", "Potency": "inactive"}
{"compound": "CCCCC(=O)NC(=S)Nc1nnn(CCC)n1", "Potency": "inactive"}
{"compound": "Cc1cc(SCC#N)n2nc(C)c(-c3ccccc3)c2n1", "Potency": "inconclusive: 14.6 µM [inhibitor, partial curve]"}
{"compound": "COc1cc(OC)c2c(c1)OC(=O)CC2c1cc(OC)c(OC)c(OC)c1", "note": "(configuration not stated)", "Potency": "inactive"}
{"compound": "O=C(Oc1c(Cl)cc(Cl)c2cccnc12)c1cccs1", "Potency": "inconclusive: 23.1 µM [inhibitor, partial curve, poor fit]"}
{"compound": "CC[C@@H](C)[C@H](NC(=O)CCc1c(C)c2cc3c4c(oc3c(C)c2oc1=O)CCCC4)C(=O)O", "Potency": "inconclusive: 16.4 µM [inhibitor, partial curve, poor fit]"}
{"compound": "CCN(CC)c1ccc(NC(=O)c2cc(OC)cc(OC)c2)c(C)c1", "Potency": "active: 6.51 µM"}
{"compound": "NNC(=O)c1[nH]c2ccccc2c1-c1ccccc1", "Potency": "inconclusive: 6.51 µM [inhibitor, partial curve]"}
{"compound": "Cc1ccc(/C=N/NC(=O)COc2ccccc2-c2ccccc2)cc1", "Potency": "active: 0.291 µM"}
{"compound": "Cc1nnc(C)n1/N=C/c1cc2ccccc2nc1Cl", "Potency": "inconclusive: 29.1 µM [inhibitor, single point]"}
{"compound": "CC(C)Sc1ccccc1C(=O)Nc1ccc2c(c1)n(C)c(=O)n2C", "Potency": "inactive"}
{"compound": "CCOC(=O)c1c(C)sc2c1N(C(C)=O)c1cc(Cl)ccc1S2", "Potency": "inconclusive: 9.2 µM [inhibitor, partial curve]"}
{"compound": "N#Cc1ccccc1NC(=O)c1cccc(COc2ccc(Cl)cc2Cl)c1", "Potency": "inactive"}
{"compound": "CC1=Nc2cc(C(=O)NCc3ccco3)ccc2Sc2ccc(C)cc21", "Potency": "active: 1.84 µM"}
{"compound": "C/C(CCC(C)C)=N\\NC(=O)COc1ccccc1-c1ccccc1", "Potency": "inactive"}
{"compound": "Cc1ccc(C(=O)O)cc1NC(=S)NC(=O)C(c1ccccc1)c1ccccc1", "Potency": "inactive"}
{"compound": "COc1cc(C(=O)NNC(=O)C2CC=CCC2C(=O)O)cc(OC)c1OC", "note": "(configuration not stated)", "Potency": "inactive"}
{"compound": "C=CCOc1ccc(/C=C2\\SC(N)=NC2=O)cc1OC", "Potency": "inconclusive: 11.6 µM [inhibitor, partial curve]"}
{"compound": "COc1cc(NC(=S)NC(=O)c2ccccc2F)ccc1NC(=O)c1ccco1", "Potency": "inactive"}
{"compound": "O=S1(=O)N=C(Nc2nc3c(s2)CCCC3)c2ccccc21", "Potency": "active: 7.31 µM"}
{"compound": "Cc1cc(C)c(C#N)c(SCc2c(F)cccc2[N+](=O)[O-])n1", "Potency": "inconclusive: 16.4 µM [inhibitor, partial curve]"}
{"compound": "Cc1nc(NC(=S)Nc2ccccc2)sc1C", "Potency": "inconclusive: 10.3 µM [inhibitor, partial curve, poor fit]"}
{"compound": "Cc1nn(CCC(=O)NNC(=S)NCC(C)C)c(C)c1Br", "Potency": "inactive"}
{"compound": "Cc1onc(-c2ccccc2)c1-c1nc2cc(Cl)ccc2c(=O)o1", "Potency": "active: 2.31 µM"}
{"compound": "CCOc1cc(/C=N\\NC(N)=O)cc(Br)c1OC(C)C", "Potency": "inconclusive: 20.6 µM [inhibitor, single point]"}
{"compound": "CCOc1ccc(C(=O)NC(=S)Nc2cccc(S(=O)(=O)NC3=NCCC3)c2)cc1", "Potency": "active: 18.4 µM"}
{"compound": "NNC(=O)c1[nH]c2ccc(Cl)cc2c1-c1ccccc1", "Potency": "inactive"}
{"compound": "COc1cc(C(CCN2CCOCC2)c2c(OC)cc(OC)c3c(-c4ccccc4)cc(=O)oc23)cc(OC)c1OC", "note": "(configuration not stated)", "Potency": "inconclusive: 18.4 µM [inhibitor, partial curve]"}
